# Reference: patent US8536137B2, “Methods for treating nucleoside-induced pain” (UCB Pharma GmbH, priority 2004, dated 2013)
# Key:
# Type in all cases: in vivo
# [1] = tested on: bone cancer rats (MRMT-1 rat mammary gland carcinoma cells injected into the tibia); assay: Bone cancer rat model: Von Frey test of mechanical allodynia; conditions: morphine 5 mg/kg; baseline vs post-dose p<0.01
# Experimental: (§1) Cells were cultured in medium containing RPMI-1640 (Gibco, 500 ml), 10% heat-inactivated fetal bovine serum (Hyclone), L-glutamine (final concentration 2 mM, from Gibco) and antibiotic solution (final concentration 100 U/ml penicillin and 100 ug/ml streptomycin sulfate, from Gibco). Cells were released from the tissue culture flask by brief exposure to 0.1% trypsin so (Gibco) and then prepared for injection as follows: cells were centrifuged for 10 minutes at approximately 1,200 rpm. The resulting pellet was washed twice in Phosphate Buffered Saline (PBS, Mediatech) containing no calcium or magnesium. Final pellet was re-suspended in PBS and cell count taken using a hemocytometer. Cells were diluted to achieve final concentrations for injection and kept on ice until injection was performed.
# (§2) After one week of quarantine, either culture media or 3×10^4 syngeneic MRMT-1 rat mammary gland carcinoma cells were injected into the medullary cavity of the proximal tibia of each rat. Procedurally, the animal was first anesthetized with ketamine/xylazine and the right leg area shaved and treated with an iodine solution and cleaned with a 70% ethanol solution. […]
# (§3) On days 7, 8, 14 and 15, pain assessment tests were performed. […] The animals were first evaluated for mechanical allodynia and then thermal hyperalgesia. […] The animals were first evaluated for baseline weight bearing responses. […]
# [2] = tested on: bone cancer rats (MRMT-1 rat mammary gland carcinoma cells injected into the tibia); assay: Bone cancer rat model: thermal paw stimulation (thermal hyperalgesia); conditions: morphine control group, days 14 and 15; trend to increased latency
# Experimental: as §1, §2, §3
# [3] = tested on: bone cancer rats (MRMT-1 rat mammary gland carcinoma cells injected into the tibia); assay: Bone cancer rat model: weight bearing difference (mechanical hyperalgesia); conditions: morphine group, following treatment; p<0.05
# Experimental: as §1, with “performed. […]” for “performed.”
# as §3
# After the animals in groups 4-6 were re-randomized to drug treatment groups, on day 9, 15 all animals underwent weight-bearing testing. Weight bearing of affected hind limbs was assessed as the difference in weight borne by the ipsilateral compared to the contralateral limb. […]
compound,measurement,setting,value
"CN1CC[C@]23c4c5ccc(O)c4O[C@H]2[C@@H](O)C=C[C@H]3[C@H]1C5 [morphine, reference compound]",effect on the allodynia revealed at baseline testing (Von Frey),[1],completely reversed the allodynia
same,"latency to paw removal (thermal paw testing), post-treatment",[2],did not show statistical significance
same,amount of weight placed on contralateral paw (weight bearing difference) vs 'cells only' group,[3],significant reduction
